Publication PMC3846258 (ACS chemical biology, 2013)

Target: BRDT (first bromodomain) (Homo sapiens, UniProt Q58F21)
Test: X-ray co-crystal structure, […] Å
Type: binding

Kd: 37 µM
Compound: CCc1cnn2c(NCc3ccc[n+]([O-])c3)cc(N3CCCC[C@H]3CCO)nc12 [dinaciclib]
